Test results published in PubChem BioAssay AID485353 (National Center for Advancing Translational Sciences (NCATS), 2010).
Out of some 330,000 compounds screened, about 610 (0.18%) were called active. The inconclusive results got no clear call from the source; some entries with a clear call stand among them for comparison. Calls come from the whole dose curve. Potencies beside an inconclusive call are fits to weak or partial responses and may not hold up.

Assay: qHTS of Yeast-based Assay for SARS-CoV PLP; note: nearly all actives have a fitted effect of over 55% in size; for activity, positive = growth rescue: 0% is about no effect
Conditions: S. cerevisiae expressing SARS-CoV PLpro; Potency: growth rescue; activity, positive = growth rescue: at 32.9 µM (top of the series)
Potency is the fitted concentration of half-maximal effect.

Question: For COc1cc(/C=N/NC(=S)NCc2ccccc2)ccc1OCC#N, which “activity, positive = growth rescue” value is on record?
Answer: inactive: -2.47%

Question: For Cc1c(C#N)c(NC(=O)c2ccccc2)n(Cc2ccccc2)c1C, which Potency is on record?
Answer: inconclusive: 10 µM [activator, partial curve]

Question: Which “activity, positive = growth rescue” value does the source give for CCNC(=S)NNC(=O)c1c(Cl)c(C)nn1C here?
Answer: inactive: 2.54%

Question: For Oc1ccc2ccccc2c1/C=N/Nc1ccccc1, which “activity, positive = growth rescue” value is on record?
Answer: inactive: -12.2%

Question: With COc1ccc(C(=O)Nc2ccc3c(c2)OCCO3)cc1S(=O)(=O)N1CCOCC1 as the compound, how does the “activity, positive = growth rescue” value read?
Answer: inactive: -17.1%

Question: For O=C(NC1CCCCC1)c1ccccc1NC(=O)C1CC1, which Potency is on record?
Answer: inconclusive: 7.94 µM [activator, partial curve]

Question: Which “activity, positive = growth rescue” value does the source give for O=C(CN1CCN(Cc2ccccc2)CC1)N1CCCc2c1c(=O)oc1ccc(O)cc21 here?
Answer: inactive: -1.2%

Question: For Cc1ccc2c(CN3CCN(C(=O)c4ccco4)CC3)cc(=O)oc2c1C, which “activity, positive = growth rescue” value is on record?
Answer: inactive: -3.29%

Question: With c1ccc(-n2nnc(-c3cccnc3)n2)cc1 as the compound, how does the “activity, positive = growth rescue” value read?
Answer: inactive: -0.725%

Question: Which Potency does the source give for COc1cc(C2NC(=O)NC(c3ccccc3)=C2C(C)=O)c(Br)cc1OCC(N)=O (stereo not drawn) here?
Answer: inconclusive: 20 µM [activator, single point]

Question: With CCC1CCCCN1S(=O)(=O)c1ccc(C(=O)Nc2nnc(-c3cccs3)o2)cc1 (stereo not drawn) as the compound, how does the Potency read?
Answer: active: 11.2 µM

Question: With O=C(CN1C(=O)C2C3CC(C(Br)C3Br)C2C1=O)N1CCOCC1 (stereo not drawn) as the compound, how does the Potency read?
Answer: inconclusive: 14.1 µM [activator, single point]

Question: Which Potency does the source give for CCOc1cccc(/C=N/Nc2ccc(S(=O)(=O)N(CC)CC)cn2)c1O here?
Answer: active: 7.94 µM

Question: Which Potency does the source give for O=C(NCc1nnc(SCC(=O)N2CCCC2)o1)c1c(F)cccc1Cl here?
Answer: inconclusive: 3.98 µM [activator, single point]

Question: With Cc1ccc(C2=CC(=O)C[C@H](c3ccc(Cl)cc3)C2)cc1 as the compound, how does the “activity, positive = growth rescue” value read?
Answer: inactive: -1.62%

Question: With CCOc1ccccc1NC(=S)Nc1ccccc1F as the compound, how does the Potency read?
Answer: inconclusive: 3.16 µM [activator, single point]

Question: For CCOC(=O)c1c(C)n(C)c2ccc(OC)c(NS(=O)(=O)CC)c12, which Potency is on record?
Answer: inconclusive: 2.82 µM [activator, full curve, poor fit]

Question: For O=c1oc2cc(OCc3ccc(F)cc3F)ccc2cc1-c1ccc2ccccc2n1, which Potency is on record?
Answer: inconclusive: 0.398 µM [activator, full curve, poor fit]

Question: For Cc1ccc2sc(N(CCCN(C)C)C(=O)c3ccc(S(=O)(=O)N(C)C4CCCCC4)cc3)nc2c1C, which “activity, positive = growth rescue” value is on record?
Answer: inactive: -3.51%

Question: With O=C(COC(=O)C12CC3CC(CC(O)(C3)C1)C2)Nc1ccccc1OC(F)F as the compound, how does the Potency read?
Answer: inconclusive: 22.4 µM [activator, partial curve, poor fit]

Question: With COc1ccc(NC(=O)c2nnn(CC(=O)Nc3ccccc3OC)c2N)c(OC)c1 as the compound, how does the Potency read?
Answer: inconclusive: 0.891 µM [activator, full curve, poor fit]

Question: With O=C1C(c2ccccc2)=C(N2CC2)c2ccccc21 as the compound, how does the Potency read?
Answer: inconclusive: 20 µM [activator, single point]

Question: With O=C(CSc1nc2ncccc2[nH]1)c1cccc([N+](=O)[O-])c1 as the compound, how does the “activity, positive = growth rescue” value read?
Answer: inactive: -1.23%

Question: With Cc1ccnc(NC(=S)NC(=O)/C=C/c2ccco2)c1 as the compound, how does the Potency read?
Answer: inconclusive: 11.2 µM [activator, partial curve]

Question: For O=C(C1CCCN1S(=O)(=O)c1cccc2nsnc12)N1CCN(c2ccc(F)cc2)CC1 (stereo not drawn), which Potency is on record?
Answer: inconclusive: 2.82 µM [activator, single point]

Question: With COC(=O)c1ccccc1NC(=O)c1cc(-c2ccc(C)cc2)on1 as the compound, how does the Potency read?
Answer: inconclusive: 20 µM [activator, single point]

Question: With COc1ccc(-n2c(=O)c3ccccc3n(CC(=O)NC3CCCCC3)c2=O)cc1 as the compound, how does the Potency read?
Answer: inconclusive: 20 µM [activator, single point]

Question: Which “activity, positive = growth rescue” value does the source give for CN(C)c1ccc(NC(=O)c2sc(SCC(=O)Nc3ccc(Br)cc3)nc2N)cc1 here?
Answer: inactive: -0.109%

Question: With N#Cc1cc2cc3c(cc2nc1N1CCOCC1)OCO3 as the compound, how does the Potency read?
Answer: inconclusive: 12.6 µM [activator, single point]

Question: For CC1CN(C(=S)SCC(=O)c2ccccc2)CC(C)O1 (stereo not drawn), which Potency is on record?
Answer: active: 10 µM

Question: With COc1cccc(-n2c(COc3ccc(C)cc3)nnc2SCC(N)=O)c1 as the compound, how does the Potency read?
Answer: inconclusive: 17.8 µM [activator, single point]

Question: With COc1cccc(-c2cccc(NC(=O)C3CCN(Cc4nccs4)CC3)c2)c1 as the compound, how does the Potency read?
Answer: inconclusive: 12.6 µM [activator, single point]

Question: Which Potency does the source give for O=C(NCc1ccco1)c1ccc(Cl)c(S(=O)(=O)N2CCc3ccccc32)c1 here?
Answer: inconclusive: 4.47 µM [activator, single point]

Question: Which Potency does the source give for CC/C(O)=C(/C#N)c1nnc2n1CCCCC2 here?
Answer: inconclusive: 20 µM [activator, single point]

Question: For c1ccc2c(c1)CC1(CCCCC1)n1nnnc1-2, which Potency is on record?
Answer: active: 14.1 µM

Question: For CC1(C)CN=C(N(Cc2ccccc2)C(=O)Nc2ccccc2)S1, which “activity, positive = growth rescue” value is on record?
Answer: inactive: 10.7%

Question: With O=C(Nc1nccs1)c1cn(-c2ccccc2)nc1-c1ccccc1 as the compound, how does the Potency read?
Answer: inconclusive: 4.47 µM [activator, single point]

Question: For COc1ccc(Cc2nnc(NC(=O)c3cc(OC)cc(OC)c3)s2)cc1, which “activity, positive = growth rescue” value is on record?
Answer: inactive: -4.32%

Question: For O=C(Nc1ccc(OC(=O)c2cccnc2)cc1)c1cccnc1, which Potency is on record?
Answer: inconclusive: 20 µM [activator, single point]

Question: For CC(C)C(=O)NC(=S)Nc1ccccc1F, which Potency is on record?
Answer: inconclusive: 20 µM [activator, single point]

Question: Which Potency does the source give for CCn1cc(CNC(=O)/C=C/c2cnn(C)c2)c(C)n1 here?
Answer: inconclusive: 20 µM [activator, single point]

Question: With CCN(CC)S(=O)(=O)c1cc([N+](=O)[O-])ccc1NNC(=O)Nc1ccccc1 as the compound, how does the Potency read?
Answer: inconclusive: 3.98 µM [activator, single point]

Question: Which Potency does the source give for COc1ccc(-n2nnnc2SCC(=O)c2ccc3c(c2)OCCO3)cc1 here?
Answer: inconclusive: 10 µM [activator, partial curve]

Question: For Nc1nnc(CSCc2cccc(Br)c2)s1, which “activity, positive = growth rescue” value is on record?
Answer: inactive: -0.558%

Question: For CCOc1ccc(NS(=O)(=O)c2ccc(C(=O)NNC(=O)c3ccccc3O)cc2)cc1, which Potency is on record?
Answer: inconclusive: 11.2 µM [activator, partial curve]

Question: Which “activity, positive = growth rescue” value does the source give for COC(=O)C1=C(C)NC(C)=C(C(=O)OC)C1c1ccc(-c2cccc(Cl)c2Cl)o1 here?
Answer: inactive: 8.03%

Question: With COc1ccc(Oc2coc3c(CN4CCOCC4)c(O)ccc3c2=O)cc1 as the compound, how does the “activity, positive = growth rescue” value read?
Answer: inactive: 5.28%

Question: With COc1cc2c(cc1OC)CN(C(=O)c1cc(S(=O)(=O)N3CCOCC3)ccc1Cl)CC2 as the compound, how does the Potency read?
Answer: inconclusive: 4.47 µM [activator, single point]
